Results are given in words; binding and its absence hold for the method and conditions named. For some assays here: In cells and extracts the contact can be indirect. Some binding calls cover weakened binding; strength is not graded here. For some assays here: Sequences can lack the tags named with a protein. Each block holds one molecule with its values, some of them ahead of it.
Tests used:
[1] = molecular target: NUCLEOSOME ASSEMBLY PROTEIN 1;1 (NAP1;1), yeast two-hybrid fusion (Arabidopsis thaliana) (UniProt Q9SZI2); assay: two-hybrid
[2] = molecular target: T1, FASCIATA1 (FAS1), yeast two-hybrid fusion (Arabidopsis thaliana) (UniProt Q9SXY0); assay: two-hybrid
T1 sequence: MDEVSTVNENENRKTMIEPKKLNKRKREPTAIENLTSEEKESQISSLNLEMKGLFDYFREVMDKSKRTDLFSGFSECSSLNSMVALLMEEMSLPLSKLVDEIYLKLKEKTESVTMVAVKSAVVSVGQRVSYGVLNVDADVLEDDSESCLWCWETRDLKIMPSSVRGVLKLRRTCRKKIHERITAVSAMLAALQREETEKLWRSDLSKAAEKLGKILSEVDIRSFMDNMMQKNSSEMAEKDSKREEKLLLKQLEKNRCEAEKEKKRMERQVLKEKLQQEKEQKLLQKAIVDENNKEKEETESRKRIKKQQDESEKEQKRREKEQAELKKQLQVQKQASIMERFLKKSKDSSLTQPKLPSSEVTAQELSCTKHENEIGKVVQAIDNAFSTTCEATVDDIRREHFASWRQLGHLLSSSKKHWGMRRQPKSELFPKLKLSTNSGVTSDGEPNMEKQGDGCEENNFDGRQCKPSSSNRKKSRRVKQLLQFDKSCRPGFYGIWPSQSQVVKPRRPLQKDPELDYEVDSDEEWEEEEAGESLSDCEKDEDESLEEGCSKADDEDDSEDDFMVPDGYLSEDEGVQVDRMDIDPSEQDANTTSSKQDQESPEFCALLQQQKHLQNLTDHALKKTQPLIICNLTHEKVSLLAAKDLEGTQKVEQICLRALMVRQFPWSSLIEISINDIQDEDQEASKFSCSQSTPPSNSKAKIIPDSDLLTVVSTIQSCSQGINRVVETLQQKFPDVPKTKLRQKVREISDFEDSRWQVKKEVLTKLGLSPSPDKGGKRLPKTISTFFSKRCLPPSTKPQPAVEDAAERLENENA

Amino acid sequences for entries named in this document (tags omitted).
UniProt Q9SZI2: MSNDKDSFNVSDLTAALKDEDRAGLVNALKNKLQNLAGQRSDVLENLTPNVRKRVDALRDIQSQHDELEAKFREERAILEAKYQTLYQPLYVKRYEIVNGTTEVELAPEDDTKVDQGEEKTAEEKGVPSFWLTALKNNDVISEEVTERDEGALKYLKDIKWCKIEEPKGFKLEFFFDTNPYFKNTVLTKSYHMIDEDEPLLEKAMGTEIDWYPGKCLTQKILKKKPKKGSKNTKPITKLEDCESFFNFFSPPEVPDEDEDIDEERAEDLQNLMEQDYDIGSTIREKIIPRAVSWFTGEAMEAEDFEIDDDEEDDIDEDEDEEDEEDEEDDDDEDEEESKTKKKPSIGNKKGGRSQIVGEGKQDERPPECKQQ
UniProt Q94K07: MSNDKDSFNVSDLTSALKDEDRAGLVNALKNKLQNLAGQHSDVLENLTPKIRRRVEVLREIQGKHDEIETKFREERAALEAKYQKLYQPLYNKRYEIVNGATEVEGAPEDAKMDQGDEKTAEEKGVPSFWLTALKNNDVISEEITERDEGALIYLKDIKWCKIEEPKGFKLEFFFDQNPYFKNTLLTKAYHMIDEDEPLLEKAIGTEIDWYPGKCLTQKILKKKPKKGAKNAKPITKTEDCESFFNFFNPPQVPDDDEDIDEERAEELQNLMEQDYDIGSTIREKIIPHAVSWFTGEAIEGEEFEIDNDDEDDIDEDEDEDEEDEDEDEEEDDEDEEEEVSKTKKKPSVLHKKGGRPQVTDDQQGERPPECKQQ

[3] = molecular target: T2, nYFP/FAS1 (BiFC fusion) (Arabidopsis thaliana) (UniProt Q9SXY0); assay: split reporter
T2 sequence: T1 sequence

[4] = molecular target: cYFP/NAP1;1 (BiFC fusion) (Arabidopsis thaliana) (UniProt Q9SZI2); assay: split reporter
[5] = molecular target: T3, FASCIATA1 (FAS1), yeast two-hybrid fusion (Arabidopsis thaliana), Q9SXY0; assay: two-hybrid; conditions: remark: other sources report otherwise
T3 chain: T1 sequence

[6] = molecular target: T4, nYFP/FAS1 (BiFC fusion) (Arabidopsis thaliana), Q9SXY0; assay: split reporter; conditions: remark: other sources report otherwise
T4 chain: T1 sequence

Molecule: NUCLEOSOME ASSEMBLY PROTEIN 1;3 (NAP1;3), yeast two-hybrid fusion (from UniProt Q94K07 1-374)
binding [2]: no binding

Molecule: cYFP/NAP1;1 (BiFC fusion) (from UniProt Q9SZI2 1-372)
binding [3]: no binding
binding [4]: binds

B1: ANTI-… FUNCTION 1 (ASF1a), yeast two-hybrid fusion, Q9C9M6 1-196 (protein)
chain: MSAIKITNVAVLHNPAPFVSPFQFEISYECLNSLKDDLEWKLIYVGSAEDETYDQLLESVLVGPVNVGNYRFVFQADPPDPSKIQEEDIIGVTVLLLTCSYMGQEFLRVGYYVNNDYEDEQLKEEPPTKVLIDKVQRNILSDKPRVTKFPIDFHPEEEQTAATAAPPEQSDEQQPNVNGEAQVLPDQSVEPKPEES
binding [5]: binds

B2: ASF1a (BiFC fusion), Q9C9M6 1-196 (protein)
chain: B1 chain
binding [6]: binds

Second part, the molecule after the results:

binding [1]: binds
binding [2]: no binding
Molecule: NUCLEOSOME ASSEMBLY PROTEIN 1;1 (NAP1;1), yeast two-hybrid fusion (from UniProt Q9SZI2 1-372)

binding [3]: no binding
Molecule: cYFP/NAP1;3 (BiFC fusion) (from UniProt Q94K07 1-374)

— article doi:10.1101/2020.01.03.894170
